Values of other authors, collected in patent publication US8623415B2, “Method for producing biologically ingestible microparticles, biologically ingestible microparticles, and dispersion and pharmaceutical composition containing the same” (M. Technique Co., Ltd., priority 2007, dated 2014).

Conditions: rat; bulk powder of 20 to 30 μm atomized into powder of 270 nm

absorption increase by atomizing: increased four times
Structure (SMILES): COc1ccc2cc([C@H](C)C(=O)O)ccc2c1 [naproxen]
